# PubChem BioAssay AID2685 (National Center for Advancing Translational Sciences (NCATS), 2010)
# The other results are listed elsewhere or left out. Further columns of the screen follow, without active or inactive calls. Most of these compounds were active or inconclusive in the main read-out, so they are no random draw. Words in brackets tell the shape of the fitted curve; partial curves, single points and poor fits give uncertain potencies.
# Experiment: qHTS Assay for Lipid Storage Modulators in Drosophila S3 Cells;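 on cell number change: cells counted by Cell Tracker Red CMTPX staining in the red channel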
# Conditions: BODIPY lipid droplet fluorescence, 18-24 h; for cell number change: measured here: cell count max response, cells fed with added oleic acid
# Procedure, shortened: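 Laser-scanning cytometry quantifies lipid droplet accumulation (500–530 nm total intensity; droplet/cell object ratio) in oleic acid-fed (400 uM added) Drosophila S3 cells treated with a concentration series. 20 uM Triacsin C defined 100% inhibition.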
# [1] = measured here: lipid fluorescence (Fed channel) AC50, cells fed with added oleic acid
# [2] = measured here: cell number channel AC50, cells fed with added oleic acid
SMILES,cell number change [%],AC50 [1],AC50 [2]
CC(C)NC(=S)Nc1cccc2cnccc12,14.1,"16.4 µM [rising, partial curve]",–
O=C(COC(=O)c1ccccc1NC(=O)c1ccco1)NC1CC1,114,"0.13 µM [rising, full curve, poor fit]","0.103 µM [rising, full curve, poor fit]"
Cc1nc2ccc(S(=O)(=O)NCC(=O)N3CCCC(C)C3)cc2s1 (configuration not stated),-0.114,"23.1 µM [falling, single point]",–
CCN(Cc1ccccc1)S(=O)(=O)c1cc(C(=O)NCCCN(C)C)ccc1OC,-57.4,–,"20.6 µM [falling, partial curve, poor fit]"
O=C(OCC(=O)N1CCN(C(=O)c2ccco2)CC1)c1cc(-c2ccco2)nc2ccccc12,-8.05,"0.82 µM [falling, single point]",–
c1ccc2nc(-c3ccc(N4CCOCC4)cc3)ccc2c1,–,"2.06 µM [rising, partial curve]","1.84 µM [rising, partial curve]"
CC(=O)Nc1nonc1-c1nc2ccccc2n1CCC(C)C,10.9,"29.1 µM [rising, single point]",–
COc1ccc(-c2noc(N3CCC(C(=O)Nc4ccccc4Cl)CC3)n2)cc1,11.8,"6.51 µM [rising, partial curve, poor fit]",–
Cc1n[nH]c(=S)n1/N=C/c1ccc(OCc2ccc(Cl)cc2Cl)cc1,-30.7,"4.11 µM [rising, partial curve]","4.11 µM [falling, full curve, poor fit]"
N#Cc1ccccc1OCC(=O)OCC(=O)NC1CCS(=O)(=O)C1 (configuration not stated),-9.66,"6.51 µM [rising, single point]",–
O=c1cc(-c2ccccc2)[nH]c2nc3ccccc3n12,–,"0.58 µM [falling, single point]",–
COc1ccc2oc(-c3ccccc3)c(C(=O)N(C)C)c2c1,-0.276,"1.84 µM [rising, partial curve]",–
COc1ccc(CCNCC(O)COc2ccc(OC)cc2C(C)(C)C)cc1 (configuration not stated),-8.82,"20.6 µM [falling, single point]",–
O=C(Nc1ccc(NC(=O)c2cccs2)cc1)c1ccc2c(c1)OCO2,-18.7,"0.146 µM [falling, full curve, poor fit]",–
O=C(NNC(=O)c1ccccc1[N+](=O)[O-])c1ccccc1[N+](=O)[O-],–,"5.8 µM [rising, single point]",–
NS(=O)(=O)c1ccc(CCNC(=O)Nc2ccc(Cl)cc2)cc1,-9.73,"0.103 µM [rising, full curve, poor fit]",–
O=C(c1ccco1)N1CCN(c2ncnc3c2[nH]c2ccccc23)CC1,–,"0.517 µM [falling, single point]",–
CCOCCCNC(=O)CCc1ccc(S(=O)(=O)Nc2ccc(C)cc2)cc1,-5.2,–,–
COc1ccc(NC(=O)c2ccccc2)cc1NS(=O)(=O)c1ccc(F)cc1,13.7,"2.06 µM [rising, partial curve]",–

SMILES,cell number change [%],AC50 [1],AC50 [2]
O=C1C(Cl)=C(N2CCOCC2)C(=O)N1c1ccccc1,-19,"4.61 µM [falling, full curve, poor fit]",–
Cn1c(=O)c2sccc2n2c(CCCC(=O)N3CCCCC3)nnc12,–,"14.6 µM [falling, partial curve]",–
O=C(Nc1cccc(C(F)(F)F)c1)c1cccnc1NCCO,–,"3.66 µM [falling, full curve]",–
CCOc1ccc(C(=O)Nc2ccccc2NC(C)=O)cc1OCC,13,–,–
COc1ccc(C(=O)NC(=S)NNC(=O)c2c(-c3ccccc3)noc2C)cc1,-1.45,–,–
CC(=O)N/C(=N\c1nc(C)cc(C)n1)Nc1ccc(Cl)cc1Cl,-45.1,–,"29.1 µM [falling, single point]"
COc1ccc(CNC(=O)CN(C)Cc2ccc(C(C)(C)C)cc2)cc1,-34.1,"18.4 µM [falling, single point]","29.1 µM [falling, single point]"
COCC(=O)Nc1nc(-c2ccccc2)c(C)s1,-37.2,"6.51 µM [falling, partial curve, poor fit]","10.3 µM [falling, partial curve]"
CCOC(=O)C1CCCN(C(=O)c2cc(CN3C(=O)c4ccccc4C3=O)ccc2OC)C1 (configuration not stated),-25,"2.91 µM [falling, partial curve]","6.51 µM [rising, partial curve]"
CC(=O)c1sc(NC(=O)COc2ccccc2)nc1C,–,"0.00461 µM [rising, full curve, poor fit]","0.00461 µM [rising, full curve, poor fit]"
CCOc1cc(/C=N/NC(=O)c2ccc(-c3csc(Nc4ccc(C)cc4)n3)cc2)ccc1OCC(=O)O,18.7,–,"1.84 µM [rising, full curve, poor fit]"
O=C(CSc1ncccn1)Nc1cccc2ccccc12,20.3,"4.11 µM [rising, full curve]",–
COc1cccc(-c2c(C(=O)N/N=C(\C)c3ccc(Cl)s3)nnn2-c2nonc2N)c1,19.8,"6.51 µM [rising, single point]",–
Fc1cccc(NC(=S)N2CCN(c3ccccn3)CC2)c1,-20.1,"0.082 µM [rising, full curve, poor fit]",–
CCOC(=O)C1CCCN(C(=O)c2ccc3c(=O)n(Cc4ccccc4OC)c(=S)[nH]c3c2)C1 (configuration not stated),-15,"29.1 µM [falling, single point]","2.31 µM [rising, partial curve, poor fit]"
O=C(NCC(=O)N1CCCCCCC1)c1ccc(Br)o1,32.8,"5.17 µM [rising, partial curve, poor fit]","10.3 µM [rising, partial curve, poor fit]"
O=C(Cn1cnc2ccccc21)Nc1ccc(SC(F)F)cc1,-38.7,–,"0.00461 µM [falling, full curve, poor fit]"
CCOC(=O)CSc1nnc(CNC(=O)c2ccc(OC)c(OC)c2)n1C,-75.9,"29.1 µM [falling, single point]","7.31 µM [falling, partial curve]"
COc1ccc(C)cc1NC(=O)c1nn(-c2ccccc2)cc1OC,32.9,"0.164 µM [rising, full curve, poor fit]",–

# Part of the list above, bar-delimited:
SMILES | cell number change [%] | AC50 [1] | AC50 [2]
Cc1n[nH]c(=S)n1/N=C/c1ccc(OCc2ccc(Cl)cc2Cl)cc1 | -30.7 | 4.11 µM [rising, partial curve] | 4.11 µM [falling, full curve, poor fit]
N#Cc1ccccc1OCC(=O)OCC(=O)NC1CCS(=O)(=O)C1 (configuration not stated) | -9.66 | 6.51 µM [rising, single point] | –
O=c1cc(-c2ccccc2)[nH]c2nc3ccccc3n12 | – | 0.58 µM [falling, single point] | –
CCOCCCNC(=O)CCc1ccc(S(=O)(=O)Nc2ccc(C)cc2)cc1 | -5.2 | – | –
CCOC(=O)C1CCCN(C(=O)c2cc(CN3C(=O)c4ccccc4C3=O)ccc2OC)C1 (configuration not stated) | -25 | 2.91 µM [falling, partial curve] | 6.51 µM [rising, partial curve]

# More results:

SMILES,cell number change [%],AC50 [1],AC50 [2]
CC(C)c1nnc(NC(=O)c2nc(S(=O)(=O)Cc3ccccc3F)ncc2Cl)s1,–,"0.651 µM [falling, partial curve, poor fit]",–
CNC(=O)C(=O)N/N=C/c1ccc(Br)cc1,-45.6,"0.092 µM [falling, partial curve, poor fit]","29.1 µM [falling, partial curve, poor fit]"
CCOc1ccc(-n2nnc3c(=O)n(CC(=O)Nc4cc(C)on4)cnc32)cc1,–,–,"0.259 µM [rising, single point]"
N#Cc1c(NC(=O)C2CC(c3ccccc3Cl)=NO2)sc2c1CCC2 (configuration not stated),-6.97,–,–
O=C(c1ccc(Br)o1)N1CCN=C1SCc1cccc(F)c1,-4.05,"18.4 µM [rising, single point]",–
CCOC(=O)c1c(NC(=O)COc2cccc3c2CCN(Cc2ccc(F)cc2)C3=O)sc2c1CCC2,14.1,"0.461 µM [rising, full curve, poor fit]",–
O=C(NCc1ccc(F)cc1)c1cc(S(=O)(=O)N2CCOCC2)ccc1F,33.7,"11.6 µM [rising, partial curve]","29.1 µM [rising, single point]"
Nc1nc(SCC(=O)c2cc3ccccc3o2)n[nH]1,-11.9,"0.259 µM [falling, full curve, poor fit]",–
CC(NC(=O)Cn1cnc2c1c(=O)n(C)c(=O)n2C)c1ccccc1 (configuration not stated),17.7,–,–
CC(C)[C@H](NC(=O)NCCc1ccc(F)cc1)C(=O)O,–,"1.16 µM [rising, partial curve, poor fit]","0.0231 µM [rising, full curve, poor fit]"
COc1ccc(-c2noc(CN(C)Cc3ccccc3)n2)c(OC)c1OC,-20.1,"29.1 µM [rising, single point]",–
Cc1ccc(-c2nn(Cc3ccccc3)cc2C(=O)NCC2CCCO2)cc1 (configuration not stated),–,–,"2.91 µM [falling, partial curve, poor fit]"
CC(C)CC(=O)Nc1cccc(-c2nc3ccccc3o2)c1,–,"0.651 µM [rising, full curve, poor fit]",–
CCOC(=O)C1(CCc2ccccc2)CCN(C(=O)CCc2cnccn2)CC1,12.8,"2.31 µM [rising, partial curve]",–
Cc1cc(C(=O)O)cc(Br)c1N,16,"1.3 µM [falling, partial curve]","0.206 µM [falling, full curve, poor fit]"
COc1ccc(S(=O)(=O)NC(C)C(=O)Nc2ccccc2C(F)(F)F)cc1 (configuration not stated),32.1,"3.66 µM [rising, single point]","5.17 µM [rising, partial curve]"
O=C1CN(C(=O)COC(=O)c2cnc(Cl)c(Cl)c2)c2ccccc2N1,-46.9,"0.461 µM [falling, full curve]","29.1 µM [falling, single point]"
Oc1ccccc1N=Cc1ccc[nH]1,18.1,–,–
CCOC(=O)c1c(NC(=O)C(C)Sc2c[nH]c3ccccc23)sc2c1CCC2 (configuration not stated),3.44,"0.461 µM [rising, partial curve]",–
